Results taken from PubChem BioAssay AID445 (National Center for Advancing Translational Sciences (NCATS), 2006).
Some of the results follow. The main result of the screen is listed elsewhere. These columns were measured beside it and carry no call. The list favours compounds with an active or inconclusive main result. Potencies come from curve fits of mixed quality, noted in brackets.

Assay: IkB Signaling
Details: ABC-DLBCL IkBa-CBG/CBR dual luciferase ratio (green luciferase fused to IkBa over red control in OCI-Ly3 lymphoma cells), 4 h
Outline: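 Luminescence ratio of IκBα-fused green versus native red beetle luciferase in OCI-Ly3 cells, 4 h post-doxycycline with compound; red signal alone, scaled from basal (0%) to zero light (-100%), flagged nonspecific or cytotoxic effects.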

[1] = measured here: control luc red channel unless noted
[2] = measured here: IkB-luc green channel
[3] = measured here: control luc red channel

For `CCCN(CCC)C(=O)c1nn(C)c2c1CSc1ccc(C)cc1-2`, the AC50 [1] was 31.6 µM [falling, partial curve].

For `CC(C)c1nnc(NC(=O)c2c(O)c3cccc4c3n(c2=O)CC4)s1`, the AC50 [1] was 0.0794 µM [falling, full curve].

For `CSc1ccccc1NC(=O)c1noc2c1CCC2`, the AC50 [1] was 6.31 µM [falling, partial curve].

In the case of `O=C(O)c1ccc(-n2c(-c3ccccc3)n[nH]c2=S)cc1`, the AC50 [1] is reported as 10 µM [falling, partial curve].

For `CC(C)Cn1c(=O)c2ccccc2n2c(CCC(=O)Nc3ccc(F)cc3)nnc12`, the AC50 [1] was 0.2 µM [falling, partial curve, poor fit].

With `CCOC(=O)N1CCC(NC(=O)c2cnn(-c3ccc(OC)cc3)c2C2CCN(C(=O)OC(C)(C)C)CC2)CC1` the AC50 [1] was 15.8 µM [falling, single point].

In the case of `Fc1ccc2[nH]c3c(N4CCSCC4)ncnc3c2c1`, the AC50 [1] is reported as 6.31 µM [falling, full curve].

In the case of `Cc1ccccc1NC(=O)COc1ccc2oc3c(c2c1)CCCC3`, the AC50 [1] is reported as 12.6 µM [falling, partial curve].

In the case of `Cc1cc(Cl)ccc1OC(C)C(=O)Nc1ccccc1N1CCOCC1` (stereo not given), the AC50 [1] is reported as 31.6 µM [falling, single point].

With `O=C(CN1C(=O)COc2ccc(S(=O)(=O)N3CCCCCC3)cc21)N1CCN(c2ccc(F)cc2)CC1` the AC50 [1] was 31.6 µM [falling, single point].

In the case of `COc1ccc(-c2cc3nc(C)c(CCC(=O)NCCc4ccc(Cl)cc4)c(C)n3n2)c(OC)c1`, the AC50 [1] is reported as 2 µM [falling, full curve].

With `Cc1ccc(Cn2c(=O)c3cccnc3n(Cc3ccc(C)cc3)c2=O)cc1` the AC50 [1] was 0.0794 µM [falling, partial curve, poor fit].

In the case of `Cc1ccc(CSc2ncc(Cl)c(C(=O)Oc3ccccc3F)n2)cc1`, the AC50 [1] is reported as 39.8 µM [falling, single point].

With `Cc1ccccc1OCCn1cc(C(=O)c2ccco2)c2ccccc21` the AC50 [1] was 12.6 µM [falling, partial curve].

With `CC(C)COC(=O)n1c(SCC(=O)N(C)C)nc2ccccc21` the AC50 [1] was 10 µM [falling, partial curve].

In the case of `Cc1ccc2cccc(S(=O)(=O)N3CCN(c4ccccc4F)CC3)c2n1`, the AC50 [2] is reported as 31.6 µM [falling, partial curve] and the AC50 [3] is reported as 25.1 µM [falling, partial curve].

For `Clc1ccc(-c2noc3ncnc(NC4CCCCC4)c23)cc1`, the AC50 [1] was 3.16 µM [rising, partial curve, poor fit].

With `COc1cc(CNC(=O)c2ccc3nc(Cc4ccccc4)oc3c2)cc(OC)c1OC` the AC50 [1] was 7.94 µM [falling, single point].

In the case of `COc1cccc(C(=O)CC2(O)C(=O)N(Cc3ccccc3)c3ccccc32)c1` (stereo not given), the AC50 [1] is reported as 12.6 µM [falling, partial curve].

For `Cc1ccccc1C(=O)Nc1sc2c(c1C(=O)N1CCC(C)CC1)CCC(C)C2` (stereo not given), the AC50 [1] was 15.8 µM [falling, partial curve].

In the case of `COc1ccccc1-n1cnnc1SCC(=O)c1cc(C)n(Cc2cccs2)c1C`, the AC50 [1] is reported as 31.6 µM [falling, partial curve].

For `CCOc1cc2[nH]c(=O)n(CCCCC(=O)N3CCN(c4ccccc4OC)CC3)c(=O)c2cc1OCC`, the AC50 [1] was 25.1 µM [falling, single point].

For `Cc1cn2c(=O)cc(COC(=O)c3ccc(NC(=O)c4ccccc4C)cc3)nc2s1`, the AC50 [1] was 3.98 µM [falling, partial curve].

With `COc1ccc2c(c1)c1c(c(=O)n(-c3ccc(OC)c(OC)c3)c(=O)n1Cc1ccc(F)cc1)n2C` the AC50 [1] was 39.8 µM [rising, single point].

With `Cc1ccccc1CS(=O)(=O)Cc1ccc(C(=O)NCCc2ccc(Cl)cc2)o1` the AC50 [1] was 39.8 µM [falling, partial curve].

With `CCOC(=O)C1CCCN(c2c(C(=O)c3ccccc3)cnc3ccc(F)cc23)C1` (stereo not given) the AC50 [1] was 39.8 µM [falling, single point].

With `O=C(CCS(=O)(=O)c1nc(-c2ccc3c(c2)OCO3)cc(C(F)(F)F)n1)Nc1ccc(Br)cc1` the AC50 [1] was 5.01 µM [falling, full curve].

With `CCCCN(CC)C(=O)c1c[nH]c2ccc(S(=O)(=O)N(C)c3ccc(Cl)cc3)cc2c1=O` the AC50 [1] was 15.8 µM [falling, partial curve].

With `COc1cccc(-c2cc(C(=O)N3CCCc4ccccc43)no2)c1` the AC50 [1] was 25.1 µM [falling, partial curve].

For `O=C1CC(c2c(F)cccc2Cl)c2c(ccc3ccccc23)N1` (stereo not given), the AC50 [1] was 31.6 µM [falling, single point].

In the case of `COc1ccc(C(=O)CSc2nnc(Cn3cnc4ccccc43)o2)cc1`, the AC50 [1] is reported as 10 µM [falling, partial curve].

In the case of `COc1ccc(C(=O)Nc2ccc3nc4c(c(Nc5ccccc5OC)c3c2)CCCC4)c(OC)c1`, the AC50 [1] is reported as 25.1 µM [falling, single point].

For `O=C(CCn1nc(-c2ccccc2)c2ccccc2c1=O)N1CCN(c2ccccc2)CC1`, the AC50 [1] was 12.6 µM [falling, partial curve].

For `O=C(Cn1c(NCCO)nc2ccccc21)c1ccc(Cl)cc1`, the AC50 [1] was 25.1 µM [falling, single point].

For `CCN(c1ccccc1C)S(=O)(=O)c1nnc(NC(=O)c2ccccc2C)s1`, the AC50 [1] was 0.501 µM [rising, full curve].

For `CCOc1ccc(CN2CCN(Cc3ccc4c(c3)c3ccccc3n4CC)CC2)cc1`, the AC50 [1] was 20 µM [falling, partial curve].

In the case of `CCOc1ccc(C(=O)/C=C/c2cn(CC(O)CN3CCc4ccccc43)c3ccccc23)cc1` (stereo not given), the AC50 [1] is reported as 5.01 µM [falling, partial curve].

For `Cc1ccc(-c2c(C(=O)N3CCN(c4ccc(F)cc4)CC3)oc(=O)c3ccccc23)cc1`, the AC50 [1] was 15.8 µM [falling, partial curve, poor fit].

For `Cc1cc(C)cc(N2C(=O)N(Cc3cc(=O)n4ccccc4n3)c3ccccc3S2(=O)=O)c1`, the AC50 [1] was 0.794 µM [falling, partial curve].

With `CC(C)Cn1c(N)c(C(=O)COC(=O)c2ccc3c(c2)OCCO3)c(=O)n(C)c1=O` the AC50 [1] was 20 µM [falling, partial curve].

In the case of `Cc1cccc2c1-c1sc(C(=O)NCCCN3CCN(c4ccccc4F)CC3)cc1CO2`, the AC50 [1] is reported as 25.1 µM [falling, partial curve].

With `COc1cccc(NC(=O)c2c(C)nn(-c3cccc(C)c3)c2-n2cccc2)c1` the AC50 [1] was 15.8 µM [falling, partial curve].

For `CCC1Sc2ccccc2N(CC(=O)NCc2ccc(C)cc2)C1=O` (stereo not given), the AC50 [1] was 25.1 µM [falling, partial curve].

With `Cc1cccn2c(=O)c3cc(C(=O)NCC(C)C)sc3nc12` the AC50 [1] was 0.126 µM [rising, full curve].

For `Cc1noc2ncnc(N3CCN(c4cccc(C(F)(F)F)c4)CC3)c12`, the AC50 [1] was 31.6 µM [falling, single point].

With `COc1ccc(C)cc1-n1c(-c2ccc(Cl)cc2)cc2c1CC(C)(C)CC2=O` the AC50 [1] was 20 µM [falling, partial curve].

With `O=C(c1ccc(Cn2c(=O)[nH]c3ccccc3c2=O)cc1)N1CCN(c2ccccn2)CC1` the AC50 [1] was 12.6 µM [falling, partial curve].

In the case of `CCc1ccccc1S(=O)(=O)Cc1ccc(C(=O)NCc2ccc3c(c2)OCO3)o1`, the AC50 [1] is reported as 25.1 µM [falling, single point].

In the case of `COc1ccccc1-c1nnc2sc(COc3ccc(Cl)cc3)nn12`, the AC50 [1] is reported as 6.31 µM [falling, partial curve].

In the case of `CC1(C)Oc2ccc3ccc(=O)oc3c2-c2cn[nH]c21`, the AC50 [2] is reported as 12.6 µM [falling, partial curve] and the AC50 [3] is reported as 20 µM [falling, partial curve].

For `Cc1ccccc1NC(=O)C(=O)NCC(c1ccc2c(c1)OCO2)N1CCN(c2ccccc2)CC1` (stereo not given), the AC50 [1] was 39.8 µM [falling, single point].

In the case of `CCOc1ccc(C2C(C(=O)Nc3ccccc3)=C(C)Nc3nc(-c4ccccc4Cl)nn32)cc1OC` (stereo not given), the AC50 [1] is reported as 6.31 µM [falling, partial curve].

For `CCCn1cnc2cc(NCc3cccc(OC)c3)ccc21`, the AC50 [1] was 3.16 µM [falling, partial curve].

In the case of `C=CCN(C(=O)CSc1nc2[nH]ncc2c(=O)n1-c1ccccc1OC)c1ccccc1`, the AC50 [1] is reported as 7.94 µM [falling, partial curve].

For `CCOc1ccc(Nc2cc(C)nc3nncn23)cc1`, the AC50 [1] was 20 µM [falling, single point].

For `COc1ccc2ccccc2c1C1CC(=O)N2CN(Cc3ccco3)CSC2=C1C#N` (stereo not given), the AC50 [1] was 2.51 µM [falling, full curve].

In the case of `CN(C)c1ccc(C(=O)OCC(=O)c2cccs2)cc1`, the AC50 [1] is reported as 12.6 µM [falling, partial curve].

With `Cc1ccc(Cc2nc3ccccc3nc2SCC(=O)N2CCC(C)CC2)cc1` the AC50 [1] was 31.6 µM [falling, partial curve].

With `Cc1ccc(-n2nc(C)c3c(C)c(CCC(=O)NC(C)c4ccccc4)c(C)nc32)cc1` (stereo not given) the AC50 [1] was 5.01 µM [falling, full curve, poor fit].

With `O=C1CC(N2CCC(c3nc4ccccc4o3)CC2)C(=O)N1c1ccc(Cl)cc1` (stereo not given) the AC50 [1] was 7.94 µM [falling, partial curve].

For `CCN(CC)C(=O)c1cc(-c2ccc(Br)cc2)on1`, the AC50 [1] was 15.8 µM [falling, partial curve].

In the case of `COc1cccc(C(=O)Nc2ccc3nc(SCC(=O)N(C)c4ccccc4)sc3c2)c1`, the AC50 [1] is reported as 3.98 µM [falling, partial curve].

With `Cc1ccc(CNC(=O)c2ccc(CSc3nc4ccncc4n3Cc3ccc(C)cc3)cc2)cc1` the AC50 [1] was 25.1 µM [falling, partial curve].
